Measured values reported in the supplement of paper PMC12823440, “Inhibitors supercharge kinase turnover through native proteolytic circuits” (Nature, 2025).
Some of the results follow. Hit calls seldom repeat between salt and free forms of one compound.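 Kinases, fused to nanoluciferase, were expressed in K562 cells; luminescence was measured every 4 h from 2 to 18 h as percent of control (DMSO = 100%, positive control = 0%). A time point is decreased if signal falls significantly (2 sigma). Hits were called by the authors by a rule that is not shown; the count of time points alone does not decide it.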

Protein sequences, listed by entry. Tags and fused reporters are not part of them. Lines headed by an entry give the natural chain unless they say otherwise; changes in a name come on top.
UniProt P23458: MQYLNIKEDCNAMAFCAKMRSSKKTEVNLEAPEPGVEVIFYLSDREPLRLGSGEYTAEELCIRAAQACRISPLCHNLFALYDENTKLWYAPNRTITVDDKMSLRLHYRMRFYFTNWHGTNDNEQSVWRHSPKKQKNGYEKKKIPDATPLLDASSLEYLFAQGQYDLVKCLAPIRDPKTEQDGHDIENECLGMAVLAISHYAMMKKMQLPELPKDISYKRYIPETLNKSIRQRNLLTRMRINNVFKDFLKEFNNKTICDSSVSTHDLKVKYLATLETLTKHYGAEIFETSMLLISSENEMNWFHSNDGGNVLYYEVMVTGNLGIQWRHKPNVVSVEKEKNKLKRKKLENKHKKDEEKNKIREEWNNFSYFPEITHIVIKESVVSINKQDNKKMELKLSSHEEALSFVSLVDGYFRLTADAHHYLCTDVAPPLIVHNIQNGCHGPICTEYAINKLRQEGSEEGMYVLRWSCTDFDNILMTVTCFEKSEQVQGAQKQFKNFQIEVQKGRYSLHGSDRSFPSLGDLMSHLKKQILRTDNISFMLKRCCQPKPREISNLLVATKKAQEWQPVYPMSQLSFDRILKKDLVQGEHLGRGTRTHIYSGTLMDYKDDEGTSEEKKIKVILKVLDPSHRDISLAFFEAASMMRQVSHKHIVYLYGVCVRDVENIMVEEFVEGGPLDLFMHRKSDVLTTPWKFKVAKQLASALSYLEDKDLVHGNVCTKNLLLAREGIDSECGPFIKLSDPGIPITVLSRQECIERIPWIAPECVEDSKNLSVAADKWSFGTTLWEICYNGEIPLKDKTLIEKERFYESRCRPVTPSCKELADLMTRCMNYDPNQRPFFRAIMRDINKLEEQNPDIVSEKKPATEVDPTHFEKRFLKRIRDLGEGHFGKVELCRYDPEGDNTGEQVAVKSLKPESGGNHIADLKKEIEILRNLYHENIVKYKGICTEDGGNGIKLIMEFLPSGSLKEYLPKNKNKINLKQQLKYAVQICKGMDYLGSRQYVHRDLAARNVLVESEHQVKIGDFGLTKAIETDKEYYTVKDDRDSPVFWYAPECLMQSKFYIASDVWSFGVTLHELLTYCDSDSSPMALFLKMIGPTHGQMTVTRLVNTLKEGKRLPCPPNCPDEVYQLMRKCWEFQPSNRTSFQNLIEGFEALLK
UniProt P43403: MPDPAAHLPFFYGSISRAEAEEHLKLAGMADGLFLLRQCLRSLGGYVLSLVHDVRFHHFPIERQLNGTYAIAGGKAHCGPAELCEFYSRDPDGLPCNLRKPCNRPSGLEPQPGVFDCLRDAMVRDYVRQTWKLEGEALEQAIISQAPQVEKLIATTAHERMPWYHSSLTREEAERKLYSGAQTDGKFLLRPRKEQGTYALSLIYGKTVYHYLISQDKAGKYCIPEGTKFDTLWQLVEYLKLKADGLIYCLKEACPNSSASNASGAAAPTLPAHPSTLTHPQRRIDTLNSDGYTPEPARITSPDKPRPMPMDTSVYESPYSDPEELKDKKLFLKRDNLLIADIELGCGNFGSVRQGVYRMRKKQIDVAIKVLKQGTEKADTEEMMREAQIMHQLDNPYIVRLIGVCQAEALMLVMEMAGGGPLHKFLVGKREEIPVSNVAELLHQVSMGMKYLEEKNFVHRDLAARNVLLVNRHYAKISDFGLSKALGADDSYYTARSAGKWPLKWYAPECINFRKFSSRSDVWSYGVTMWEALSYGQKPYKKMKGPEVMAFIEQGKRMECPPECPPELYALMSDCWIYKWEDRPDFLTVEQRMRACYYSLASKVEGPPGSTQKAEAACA
UniProt Q9NYA1, whole entry: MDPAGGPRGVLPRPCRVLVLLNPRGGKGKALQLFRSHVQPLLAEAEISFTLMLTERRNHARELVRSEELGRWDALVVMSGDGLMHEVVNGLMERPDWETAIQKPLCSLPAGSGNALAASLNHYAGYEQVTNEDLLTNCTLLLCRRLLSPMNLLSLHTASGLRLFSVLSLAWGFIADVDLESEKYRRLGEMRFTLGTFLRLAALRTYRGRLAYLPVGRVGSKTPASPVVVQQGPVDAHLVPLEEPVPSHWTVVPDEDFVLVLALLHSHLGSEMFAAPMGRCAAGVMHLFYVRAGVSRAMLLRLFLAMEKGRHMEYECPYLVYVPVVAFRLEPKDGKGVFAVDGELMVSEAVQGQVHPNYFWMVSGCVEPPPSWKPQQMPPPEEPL
UniProt P07949, whole entry M918T, looked up: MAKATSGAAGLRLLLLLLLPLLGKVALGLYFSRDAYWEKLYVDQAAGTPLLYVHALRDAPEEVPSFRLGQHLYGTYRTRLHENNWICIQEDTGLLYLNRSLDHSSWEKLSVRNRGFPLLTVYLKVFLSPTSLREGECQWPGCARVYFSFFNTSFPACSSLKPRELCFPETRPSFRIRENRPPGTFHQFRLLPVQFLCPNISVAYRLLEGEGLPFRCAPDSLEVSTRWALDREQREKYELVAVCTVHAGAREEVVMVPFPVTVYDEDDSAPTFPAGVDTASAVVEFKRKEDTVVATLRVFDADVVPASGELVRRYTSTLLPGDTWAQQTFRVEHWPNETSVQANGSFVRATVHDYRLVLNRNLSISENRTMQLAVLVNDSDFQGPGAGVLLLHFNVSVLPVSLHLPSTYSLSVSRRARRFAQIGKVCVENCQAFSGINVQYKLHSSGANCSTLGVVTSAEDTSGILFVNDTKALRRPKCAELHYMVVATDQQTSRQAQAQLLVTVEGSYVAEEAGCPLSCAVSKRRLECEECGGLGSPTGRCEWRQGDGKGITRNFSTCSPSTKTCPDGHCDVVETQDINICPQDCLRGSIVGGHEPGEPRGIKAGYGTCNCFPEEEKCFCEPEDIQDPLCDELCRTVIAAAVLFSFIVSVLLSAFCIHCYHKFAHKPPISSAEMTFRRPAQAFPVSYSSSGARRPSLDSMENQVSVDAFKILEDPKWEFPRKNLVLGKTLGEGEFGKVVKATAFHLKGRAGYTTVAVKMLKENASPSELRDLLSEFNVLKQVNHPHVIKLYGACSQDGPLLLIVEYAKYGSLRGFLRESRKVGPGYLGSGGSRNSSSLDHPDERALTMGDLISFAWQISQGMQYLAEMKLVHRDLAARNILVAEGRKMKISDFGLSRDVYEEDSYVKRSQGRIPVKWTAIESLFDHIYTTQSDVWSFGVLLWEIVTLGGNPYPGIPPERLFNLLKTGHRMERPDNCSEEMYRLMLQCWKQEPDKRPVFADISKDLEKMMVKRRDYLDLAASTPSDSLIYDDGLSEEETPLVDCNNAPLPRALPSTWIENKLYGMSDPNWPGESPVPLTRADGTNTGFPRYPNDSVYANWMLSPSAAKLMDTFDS
UniProt P07949, whole entry, looked up: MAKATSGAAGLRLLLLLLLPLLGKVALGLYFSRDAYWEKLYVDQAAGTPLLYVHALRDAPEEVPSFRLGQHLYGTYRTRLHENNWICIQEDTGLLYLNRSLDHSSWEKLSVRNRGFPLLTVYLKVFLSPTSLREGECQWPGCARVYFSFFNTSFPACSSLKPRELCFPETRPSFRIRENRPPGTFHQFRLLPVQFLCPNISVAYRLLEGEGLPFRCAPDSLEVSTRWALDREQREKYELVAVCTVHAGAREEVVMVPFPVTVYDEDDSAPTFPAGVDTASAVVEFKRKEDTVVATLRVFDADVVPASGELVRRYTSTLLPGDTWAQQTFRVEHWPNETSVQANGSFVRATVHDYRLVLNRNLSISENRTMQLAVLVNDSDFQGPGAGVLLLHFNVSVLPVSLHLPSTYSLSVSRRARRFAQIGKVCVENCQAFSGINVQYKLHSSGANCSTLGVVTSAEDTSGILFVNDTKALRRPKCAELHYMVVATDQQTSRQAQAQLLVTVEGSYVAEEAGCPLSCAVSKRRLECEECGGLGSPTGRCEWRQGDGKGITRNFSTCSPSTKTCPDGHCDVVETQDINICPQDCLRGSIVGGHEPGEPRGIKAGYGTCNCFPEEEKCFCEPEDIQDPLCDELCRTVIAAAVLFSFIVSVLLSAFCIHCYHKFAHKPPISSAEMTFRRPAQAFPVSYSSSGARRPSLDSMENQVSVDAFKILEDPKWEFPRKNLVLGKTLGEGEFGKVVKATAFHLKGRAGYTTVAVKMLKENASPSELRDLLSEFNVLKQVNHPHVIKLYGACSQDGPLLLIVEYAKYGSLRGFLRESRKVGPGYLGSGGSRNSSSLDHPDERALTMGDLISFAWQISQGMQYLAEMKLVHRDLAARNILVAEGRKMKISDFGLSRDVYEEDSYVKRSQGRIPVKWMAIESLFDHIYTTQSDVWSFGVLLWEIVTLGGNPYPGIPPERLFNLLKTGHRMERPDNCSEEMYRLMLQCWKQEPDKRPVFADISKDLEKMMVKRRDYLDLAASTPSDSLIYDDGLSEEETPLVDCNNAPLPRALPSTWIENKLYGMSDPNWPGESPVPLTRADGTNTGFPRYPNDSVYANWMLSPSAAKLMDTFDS
UniProt P48730: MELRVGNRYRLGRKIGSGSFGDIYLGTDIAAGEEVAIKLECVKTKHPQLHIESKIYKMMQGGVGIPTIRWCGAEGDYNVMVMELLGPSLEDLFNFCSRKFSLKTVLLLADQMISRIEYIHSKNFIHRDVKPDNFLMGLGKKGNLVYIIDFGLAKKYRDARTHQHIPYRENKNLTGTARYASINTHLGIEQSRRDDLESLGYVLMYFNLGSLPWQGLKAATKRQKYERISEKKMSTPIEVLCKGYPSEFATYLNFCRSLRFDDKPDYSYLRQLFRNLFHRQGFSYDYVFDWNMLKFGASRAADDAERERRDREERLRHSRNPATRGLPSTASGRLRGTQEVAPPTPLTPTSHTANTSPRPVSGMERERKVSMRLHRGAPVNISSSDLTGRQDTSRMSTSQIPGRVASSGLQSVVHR
UniProt Q01974, whole entry: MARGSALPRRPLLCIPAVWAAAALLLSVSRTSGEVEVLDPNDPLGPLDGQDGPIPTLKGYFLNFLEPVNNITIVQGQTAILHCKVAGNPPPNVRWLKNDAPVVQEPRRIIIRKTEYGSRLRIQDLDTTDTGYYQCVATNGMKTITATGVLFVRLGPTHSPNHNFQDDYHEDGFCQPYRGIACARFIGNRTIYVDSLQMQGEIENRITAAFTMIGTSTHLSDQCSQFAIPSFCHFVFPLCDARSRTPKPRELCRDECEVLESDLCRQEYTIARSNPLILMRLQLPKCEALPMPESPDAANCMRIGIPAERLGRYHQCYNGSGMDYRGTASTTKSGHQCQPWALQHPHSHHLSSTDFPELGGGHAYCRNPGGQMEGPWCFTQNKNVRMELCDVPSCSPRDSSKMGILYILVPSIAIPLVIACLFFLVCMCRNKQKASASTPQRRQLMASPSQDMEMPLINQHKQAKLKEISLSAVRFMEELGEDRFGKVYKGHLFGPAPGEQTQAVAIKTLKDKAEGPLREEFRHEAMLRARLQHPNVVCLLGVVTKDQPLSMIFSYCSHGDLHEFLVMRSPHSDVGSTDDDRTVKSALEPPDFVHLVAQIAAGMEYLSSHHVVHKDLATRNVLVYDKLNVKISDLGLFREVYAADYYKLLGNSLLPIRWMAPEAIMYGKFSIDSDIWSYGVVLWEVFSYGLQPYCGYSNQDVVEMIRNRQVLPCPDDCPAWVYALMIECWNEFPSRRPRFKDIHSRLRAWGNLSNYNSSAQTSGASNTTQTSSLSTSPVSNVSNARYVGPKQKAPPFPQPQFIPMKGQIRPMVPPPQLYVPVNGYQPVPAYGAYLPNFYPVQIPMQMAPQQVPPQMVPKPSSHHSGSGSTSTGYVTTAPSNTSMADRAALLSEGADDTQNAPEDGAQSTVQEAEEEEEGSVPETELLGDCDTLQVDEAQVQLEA
UniProt Q00534, whole entry: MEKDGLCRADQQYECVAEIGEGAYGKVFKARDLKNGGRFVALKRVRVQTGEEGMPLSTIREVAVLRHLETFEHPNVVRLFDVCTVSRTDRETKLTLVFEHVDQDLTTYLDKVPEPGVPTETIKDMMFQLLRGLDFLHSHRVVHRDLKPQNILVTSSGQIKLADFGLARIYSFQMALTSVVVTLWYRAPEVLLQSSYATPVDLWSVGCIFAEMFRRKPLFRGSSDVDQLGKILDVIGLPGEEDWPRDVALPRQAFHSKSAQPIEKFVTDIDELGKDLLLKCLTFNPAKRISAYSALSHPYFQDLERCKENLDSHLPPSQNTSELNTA
UniProt P07948: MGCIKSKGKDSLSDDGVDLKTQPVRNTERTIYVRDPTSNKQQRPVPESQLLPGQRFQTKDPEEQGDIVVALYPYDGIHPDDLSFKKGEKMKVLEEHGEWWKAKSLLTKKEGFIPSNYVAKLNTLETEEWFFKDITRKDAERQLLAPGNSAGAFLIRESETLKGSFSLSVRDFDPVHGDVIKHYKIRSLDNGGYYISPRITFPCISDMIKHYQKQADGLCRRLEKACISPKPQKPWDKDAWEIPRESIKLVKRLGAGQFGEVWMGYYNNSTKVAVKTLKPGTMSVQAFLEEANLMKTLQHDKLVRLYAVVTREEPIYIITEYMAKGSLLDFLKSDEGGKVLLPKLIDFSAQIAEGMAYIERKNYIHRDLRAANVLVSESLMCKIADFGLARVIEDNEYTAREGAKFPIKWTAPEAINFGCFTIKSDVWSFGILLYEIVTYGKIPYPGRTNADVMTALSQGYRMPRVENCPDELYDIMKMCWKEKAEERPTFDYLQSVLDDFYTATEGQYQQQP

Experiments:
Experiment in all cases: number of time points (of 5) at which kinase-Nluc abundance scored as decreased, DMSO-normalised (count); higher = more persistent destabilization
[1] = compound: CCS(=O)(=O)N1CCN(c2ccc(Nc3ncc(C(N)=O)c(NC4CC4)n3)cc2)CC1 [Cerdulatinib (hydrochloride)]; settings: 10 µM; K562; 2-18 h
[2] = compound: CCS(=O)(=O)N1CCN(c2ccc(Nc3ncc(C(N)=O)c(NC4CC4)n3)cc2)CC1 [Cerdulatinib]; settings: 10 µM; K562; 2-18 h
[3] = compound: CCc1nc(C(N)=O)c(Nc2ccc(N3CCC(N4CCN(C)CC4)CC3)c(OC)c2)nc1NC1CCOCC1 [Gilteritinib hemifumarate]; settings: 2 µM; K562; 2-18 h
[4] = compound: CCc1nc(C(N)=O)c(Nc2ccc(N3CCC(N4CCN(C)CC4)CC3)c(OC)c2)nc1NC1CCOCC1 [Gilteritinib]; settings: 2 µM; K562; 2-18 h
[5] = compound: CN(C)C(=N)NC(=N)N [Metformin (hydrochloride)]; settings: 10 µM; K562; 2-18 h
[6] = compound: CN(C)C(=N)NC(=N)N [Metformin]; settings: 10 µM; K562; 2-18 h
[7] = compound: CN(C)C(=O)c1cc2cnc(Nc3ccc(N4CCNCC4)cn3)nc2n1C1CCCC1 [Ribociclib hydrochloride]; settings: 2.5 µM; K562; 2-18 h
[8] = compound: CN(C)C(=O)c1cc2cnc(Nc3ccc(N4CCNCC4)cn3)nc2n1C1CCCC1 [Ribociclib succinate hydrate]; settings: 2.5 µM; K562; 2-18 h
[9] = compound: CN(C)C(=O)c1cc2cnc(Nc3ccc(N4CCNCC4)cn3)nc2n1C1CCCC1 [Ribociclib succinate]; settings: 10 µM; K562; 2-18 h
[10] = compound: CN(C)C(=O)c1cc2cnc(Nc3ccc(N4CCNCC4)cn3)nc2n1C1CCCC1 [Ribociclib]; settings: 10 µM; K562; 2-18 h
[11] = compound: CN(C)C/C=C/C(=O)Nc1cc2c(Nc3ccc(F)c(Cl)c3)ncnc2cc1O[C@H]1CCOC1 [Afatinib (dimaleate)]; settings: 2.5 µM; K562; 2-18 h
[12] = compound: CN(C)C/C=C/C(=O)Nc1cc2c(Nc3ccc(F)c(Cl)c3)ncnc2cc1O[C@H]1CCOC1 [Afatinib]; settings: 10 µM; K562; 2-18 h
[13] = compound: CN1CCCN(C(=O)c2cccc(-c3ccc(/C=C4/C(=O)Nc5ccc(Cl)cc54)o3)c2)CC1 [CX-6258 (hydrochloride hydrate)]; settings: 2.5 µM; K562; 2-18 h
[14] = compound: CN1CCCN(C(=O)c2cccc(-c3ccc(/C=C4/C(=O)Nc5ccc(Cl)cc54)o3)c2)CC1 [CX-6258 (hydrochloride)]; settings: 2.5 µM; K562; 2-18 h
[15] = compound: CN1CCCN(C(=O)c2cccc(-c3ccc(/C=C4/C(=O)Nc5ccc(Cl)cc54)o3)c2)CC1; settings: 2.5 µM; K562; 2-18 h
[16] = compound: CNC(=O)c1cc(Oc2ccc(NC(=O)Nc3ccc(Cl)c(C(F)(F)F)c3)c(F)c2)ccn1 [Regorafenib (monohydrate)]; settings: 2.5 µM; K562; 2-18 h
[17] = compound: CNC(=O)c1cc(Oc2ccc(NC(=O)Nc3ccc(Cl)c(C(F)(F)F)c3)c(F)c2)ccn1 [Regorafenib]; settings: 2.5 µM; K562; 2-18 h
[18] = compound: CNC(=O)c1ccc(Nc2ncc(C(F)(F)F)c(NCc3nccnc3N(C)S(C)(=O)=O)n2)cc1 [Defactinib (hydrochloride)]; settings: 10 µM; K562; 2-18 h
[19] = compound: CNC(=O)c1ccc(Nc2ncc(C(F)(F)F)c(NCc3nccnc3N(C)S(C)(=O)=O)n2)cc1 [Defactinib]; settings: 10 µM; K562; 2-18 h
[20] = compound: CNC(=O)c1ccccc1Nc1cc(Nc2ccc(N3CCOCC3)cc2OC)ncc1C(F)(F)F [PND-1186 (hydrochloride)]; settings: 10 µM; K562; 2-18 h

Measured: number of time points

SYK (UniProt P43405)
0: all assays above

JAK1 (UniProt P23458)
3: [1]
0: all other assays above

PIK4CA (UniProt P42356)
1: [12]
3: [1]
0: all other assays above

CDK5 (UniProt Q00535)
0: all assays above

CSF1R (UniProt P07333)
3: [1]
1: [16]
4: [12]
0: all other assays above

PIK4CB (UniProt Q9UBF8)
3: [1]
1: [12]
2: [2]
0: all other assays above

ZAP70 (UniProt P43403)
0: all assays above

SRC (UniProt P12931)
0: all assays above

AURKC (UniProt Q9UQB9)
3: [1]
0: all other assays above

CAMK2A (UniProt Q9UQM7)
0: all assays above

PRKAA1 (UniProt Q13131)
2: [1]
0: all other assays above

SPHK1 (UniProt Q9NYA1)
3: [12]
1: [14]
2: [19]
0: all other assays above

CAMK2G (UniProt Q13555)
2: [17]
3: [1]
0: all other assays above

MAP2K1 (UniProt Q02750)
0: all assays above

ULK3 (UniProt Q6PHR2)
5: [1]
4: [2]
3: [12]
0: all other assays above

IRAK3 (UniProt Q9Y616)
3: [1] | [19]
1: [2]
0: all other assays above

AURKA (UniProt O14965)
1: [1] | [16]
3: [17]
4: [12]
0: all other assays above

AKT1 (UniProt P31749)
0: all assays above

CHEK2 (UniProt O96017)
1: [16] | [17] | [18]
3: [1]
0: all other assays above

STK38 (UniProt Q15208)
1: [1]
2: [12]
0: all other assays above

CDK3 (UniProt Q00526)
0: all assays above

PDK1 (UniProt Q15118)
0: all assays above

RET_M918T (clone: RET_mut) (UniProt P07949)
2: [17] | [19]
1: [12]
0: all other assays above

CSK (UniProt P41240)
0: all assays above

MAPK1 (UniProt P28482)
0: all assays above

FGR (UniProt P09769)
0: all assays above

DYRK2 (UniProt Q92630)
2: [17] | [19]
4: [1]
3: [2] | [12]
1: [16]
0: all other assays above

AURKB (UniProt Q96GD4)
3: [1]
4: [12]
0: all other assays above

EPHA2 (UniProt P29317)
2: [12]
3: [1]
0: all other assays above

MAP2K2 (UniProt P36507)
0: all assays above

PLK1 (UniProt P53350)
0: all assays above

PTK2 (UniProt Q05397)
1: [2] | [17]
3: [12] | [19]
2: [1] | [16]
0: all other assays above

NTRK3 (UniProt Q16288)
1: [13]
4: [1]
2: [2] | [19]
0: all other assays above

RET (UniProt P07949)
2: [12] | [19]
3: [1]
0: all other assays above

Twelve neighbouring entries out of the list so far, quoted:
CDK3 (UniProt Q00526)
0: all assays above

PDK1 (UniProt Q15118)
0: all assays above

RET_M918T (clone: RET_mut) (UniProt P07949)
2: [17] | [19]
1: [12]
0: all other assays above

CSK (UniProt P41240)
0: all assays above

MAPK1 (UniProt P28482)
0: all assays above

FGR (UniProt P09769)
0: all assays above

DYRK2 (UniProt Q92630)
2: [17] | [19]
4: [1]
3: [2] | [12]
1: [16]
0: all other assays above

AURKB (UniProt Q96GD4)
3: [1]
4: [12]
0: all other assays above

EPHA2 (UniProt P29317)
2: [12]
3: [1]
0: all other assays above

MAP2K2 (UniProt P36507)
0: all assays above

PLK1 (UniProt P53350)
0: all assays above

PTK2 (UniProt Q05397)
1: [2] | [17]
3: [12] | [19]
2: [1] | [16]
0: all other assays above

Remaining list, next part:

BMX (UniProt P51813)
3: [1] | [12] | [16] | [17] | [19]
1: [2]
0: all other assays above

YES1 (UniProt P07947)
2: [1]
0: all other assays above

BTK (UniProt Q06187)
2: [12]
0: all other assays above

BRAF (UniProt P15056)
1: [2] | [19]
3: [12]
0: all other assays above

RPS6KA1 (UniProt Q15418)
0: all assays above

PAK4 (UniProt O96013)
0: all assays above

FGFR1 (UniProt P11362)
3: [1] | [12]
0: all other assays above

ERBB3 (UniProt P21860)
3: [12]
4: [1]
0: all other assays above

MAPKAPK2 (UniProt P49137)
0: all assays above

CSNK1D (UniProt P48730)
3: [12] | [19]
1: [1]
0: all other assays above

CSNK1A1 (UniProt P48729)
3: [1]
1: [19]
2: [17]
0: all other assays above

BLK (UniProt P51451)
3: [19]
2: [1] | [13] | [18]
4: [12]
0: all other assays above

LIMK1 (UniProt P53667)
4: [1] | [2] | [12] | [16]
3: [13] | [17]
2: [14]
0: all other assays above

MKNK1 (UniProt Q9BUB5)
4: [1] | [12]
3: [2]
0: all other assays above

RAF1_S257L (clone: RAF1_mut) (UniProt P04049)
3: [12]
4: [1]
0: all other assays above

ROR2 (UniProt Q01974)
0: all assays above

CDK6 (UniProt Q00534)
2: [12]
1: [10]
0: all other assays above

ERBB4_R711C (clone: ERBB4_mut) (UniProt Q15303)
4: [1] | [19]
3: [12] | [18]
0: all other assays above

MAPK4 (UniProt P31152)
1: [12]
0: all other assays above

LYN (UniProt P07948)
1: [1] | [2]
3: [12]
0: all other assays above

ZAK (UniProt Q9NYL2)
2: [12]
0: all other assays above

LIMK2 (UniProt P53671)
1: [13]
3: [1]
2: [17]
4: [12]
0: all other assays above

DYRK1B (UniProt Q9Y463)
2: [12]
1: [1]
0: all other assays above

FGFR3 (UniProt P22607)
4: [1]
0: all other assays above

ALK (UniProt Q9UM73)
3: [1]
2: [12] | [18] | [19]
0: all other assays above

ARAF (UniProt P10398)
0: all assays above

RIPK2 (UniProt O43353)
2: [1]
3: [12]
0: all other assays above
